# Results deposited as PubChem BioAssay AID652259 (Drosophila RNAi Screening Center, 2013)
# Purpose: 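Identify new Wingless signalling regulators in fly cells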 (primary screen)
# System: Drosophila clone 8 imaginal disc epithelial cells
# Reagent: long dsRNA against Drosophila genes
# Challenge: pathway stimulated by co-transfected Wingless expression plasmid
# Detection: 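Firefly luciferase from a tcf-site Wingless reporter, measured alongside co-transfected Renilla luciferase that tracks transfection; pathway stimulated by a Wingless plasmid; the firefly-to-Renilla ratio is not deposited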
# Direction: firefly reporter light: higher = more Wg reporter light, before normalisation; Renilla control light: higher = more transfected or surviving cells
# Call rule: 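Strong candidates differ from their plate mean by at least two out of four per-plate statistical tests; weak candidates meet just one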
# Calls: active = candidate regulator (raises or lowers reporter); inactive = not a candidate
# The screen tested about 22,000 reagents; shown is an unselected part of those with a known target gene and a result. Over the whole deposit, 233 (1.1%) got an active call. 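Light values are raw, unnormalised plate reads; the ratio scores behind the reporter calls were not deposited.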 Entries without a mark were called inactive. Not stated in the record: the amount of reagent, the time to read-out, the dose of the treatment.
gene knocked down,DRSC id,"firefly reporter light, replicate 1","firefly reporter light, replicate 2","Renilla control light, replicate 1","Renilla control light, replicate 2"
RasGAP1 (Ras GTPase activating protein 1),DRSC11172,7139,,3095,
eIF2Bepsilon (eukaryotic translation initiation factor 2B subunit epsilon),DRSC18769,2554,5984,1088,2244
Myo31DF (Myosin 31DF),DRSC03376,21505,,8101,
Myo31DF (Myosin 31DF),DRSC22702,3.58e5,4.85e5,1.97e5,1.52e5
CG14082,DRSC10086,19149,,7540,
CG17490,DRSC03794,19842,,9085,
CG17490,DRSC03797,2000,6410,597,2138
Tina-1 (Troponin C-akin-1),DRSC04317,19128,,5271,
CG3604,DRSC00618,2310,7964,696,2498
CG31213,DRSC14312,18888,,4245,
CG31213,DRSC15647,18490,,4154,
Fer2 (48 related 2),DRSC15925,16096,,2528,
CG6380,DRSC02950,3108,7104,1389,3127
Su(z)3 (retired record),DRSC07558,3987,,310,
Snx16 (Sorting nexin 16),DRSC06984,4817,,2029,
Dolk (Dolichol kinase),DRSC07143,5575,,1712,

Continued; the last 3 above are carried over.
gene knocked down,DRSC id,"firefly reporter light, replicate 1","firefly reporter light, replicate 2","Renilla control light, replicate 1","Renilla control light, replicate 2"
Su(z)3 (retired record),DRSC07558,3987,,310,
Snx16 (Sorting nexin 16),DRSC06984,4817,,2029,
Dolk (Dolichol kinase),DRSC07143,5575,,1712,
CG32537,DRSC20073,3970,9632,854,2861
CG6280,DRSC06972,6306,,1624,
CG14456,DRSC11713,8217,,3607,
mRpS18A (mitochondrial ribosomal protein S18A),DRSC14369,7578,,2250,
Cdk2 (Cyclin-dependent kinase 2),DRSC16921,2343,7648,1554,2032
Tsp42Ei (Tetraspanin 42Ei),DRSC06189,3257,7305,837,2723
Nep3 (Neprilysin 3),DRSC20685,20877,,9014,
cad (caudal),DRSC03502,6768,,1753,
CG11262,DRSC09831,5010,,2285,
CG18814,DRSC10347,4807,,2608,
Ten-m (Tenascin major),DRSC11664,17910,,5433,
Ten-m (Tenascin major),DRSC11882,16048,,4774,
Aduk (Another Drosophila Unc-51-like kinase),DRSC16451,9750,,2348,
RpL7-like (Ribosomal protein L7-like),DRSC02836,3941,7739,1513,2515
CG18557,DRSC00524,2096,5511,928,2402
VepD (Ventrally-expressed protein D),DRSC22318,4.81e5,3.90e5,2.06e5,1.96e5
Plap (Phospholipase A2 activator protein),DRSC00678,7570,,4711,
mRpL20 (mitochondrial ribosomal protein L20),DRSC09828,6901,,3169,
CG13244,DRSC21642,4.19e5,4.21e5,1.92e5,1.73e5
CG31538,DRSC12059,4512,,1386,
SIFa (SIFamide),DRSC04480,2736,6562,753,2618
magu,DRSC06832,8229,,2732,
stum (stumble),DRSC04268,2082,8333,877,3175
stum (stumble),DRSC04270,2711,8194,829,2849
norpA (no receptor potential A),DRSC18806,3991,8026,1800,2570
Sdc (Syndecan),DRSC04654,3146,4490,1019,2037
CG10651,DRSC02086,1850,6288,765,2619
Ir94c (Ionotropic receptor 94c),DRSC13539,3024,,1616,
IntS1 (Integrator 1),DRSC04343,6691,,3544,
Ada (Adenosine deaminase),DRSC14463,23120,,4365,
Hers (Histone gene-specific Epigenetic Repressor in late S phase),DRSC19429,3788,8100,1408,3074
Hers (Histone gene-specific Epigenetic Repressor in late S phase),DRSC19676,18388,,13336,
CG10898,DRSC14279,5955,,2450,
